Test results as given in PubChem BioAssay AID2685 (National Center for Advancing Translational Sciences (NCATS), 2010).
The list shows a part of the results. These are further read-outs of the screen, such as a control signal, another cell line or another target. No call is given for them. The list favours compounds with an active or inconclusive main result. The note in brackets gives the kind of curve behind each potency; many fits are weak.

Assay: qHTS Assay for Lipid Storage Modulators in Drosophila S3 Cells;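 for cell number change: cells counted by Cell Tracker Red CMTPX staining in the red channel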
Settings: BODIPY lipid droplet fluorescence, 18-24 h; for cell number change: measured here: cell count max response, cells fed with added oleic acid
Summary of the method: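 Laser-scanning cytometry quantifies lipid droplet accumulation (500–530 nm total intensity; droplet/cell object ratio) in oleic acid-fed (400 uM added) Drosophila S3 cells treated with a concentration series. 20 uM Triacsin C defined 100% inhibition.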

[1] = measured here: lipid fluorescence (Fed channel) AC50, cells fed with added oleic acid
[2] = measured here: cell number channel AC50, cells fed with added oleic acid

| SMILES | cell number change | AC50 [1] | AC50 [2] |
| --- | --- | --- | --- |
| CCOC(=O)c1nn(-c2cccc(C)c2)c2nnc(Cc3ccc(C)cc3)c(=O)n12 | 10.6% | 0.092 µM [rising, full curve, poor fit] |  |
| Cc1cc(C(=O)Nc2ccccc2C(=O)O)ccc1NC(=O)COc1cccc(C)c1C | 26.5% | 29.1 µM [rising, single point] |  |
| CS(=O)(=O)N(CC(=O)Nc1ccccc1F)C1CCCCC1 | 15% |  |  |
| CCOc1ccc(N2C(=O)CC(N3CCN(c4ccc(F)cc4)CC3)C2=O)cc1 (stereo unspecified) | -17.3% | 20.6 µM [rising, single point] |  |
| CCn1c(=O)c(=O)n(CC)c2cc(S(=O)(=O)Nc3cccc(OC)c3)ccc21 | -12.2% | 1.16 µM [rising, partial curve, poor fit] |  |
| COc1cc(CC(=O)Nc2cccc(SC)c2)cc(OC)c1OC | -16.7% |  |  |
| O=C(CN1CCOCC1)NCc1cc([N+](=O)[O-])ccc1O | 12% |  | 2.59 µM [rising, partial curve] |
| Cc1c(C(=O)NCc2ccccn2)oc2ccc(S(=O)(=O)N3CCC4(CC3)OCCO4)cc12 | 31.6% | 4.61 µM [rising, full curve] | 5.8 µM [rising, full curve, poor fit] |
| CC1CCN(C(=O)C2CCN(S(=O)(=O)c3cccnc3)CC2)CC1 | 26.5% | 0.116 µM [rising, full curve] | 1.3 µM [rising, full curve, poor fit] |
| CCC(=O)Nc1nc2nc(-c3ccccc3)cc(-c3ccccc3)n2n1 | 48.5% | 0.82 µM [rising, full curve] |  |
| Cn1c(SCC(=O)NC2CCCCC2)nnc1-c1cccnc1 |  | 6.51 µM [rising, single point] | 1.84 µM [rising, single point] |
| CCOC(=O)C1CCN(C(=O)CSc2cc(=O)n(C)c3ccccc23)CC1 | -11.1% | 0.92 µM [falling, partial curve, poor fit] |  |
| NS(=O)(=O)c1ccc(N=Nc2c(O)ccc3ccccc23)cc1 | 110% |  | 20.6 µM [rising, single point] |
| OC(C#CCN1CCCC1)c1ccccc1 (stereo unspecified) | 1.37% |  | 0.103 µM [falling, partial curve, poor fit] |
| C/C(=C\C(=O)c1ccc(Br)cc1)Nc1ccc(Cl)cc1 | 10.2% | 4.61 µM [rising, full curve] |  |
| Cc1cccc(C(=O)NCC(=O)N2CC(=O)Nc3ccccc32)c1 | -47.9% | 0.00517 µM [falling, full curve, poor fit] |  |
| CCOC(=O)c1ccccc1NC(=O)[C@@H]1CCCN1C(=O)OC(C)(C)C | -4.26% |  |  |
| C[C@H]1[C@H](C)CC[C@]2(C(=O)O)CC[C@]3(C)C(=CC[C@@H]4[C@@]5(C)C[C@@H](O)[C@H](O)C(C)(C)[C@@H]5CC[C@]43C)[C@H]12 | -22.8% | 6.51 µM [falling, single point] |  |
| O=CN1CCN(CC(O)Cn2c3ccccc3c3ccccc32)CC1 (stereo unspecified) | 5.6% |  |  |

| SMILES | cell number change | AC50 [1] | AC50 [2] |
| --- | --- | --- | --- |
| Cc1ccc(S(=O)(=O)NCC(=O)NCC2COc3ccccc3O2)cc1C (stereo unspecified) | 9.7% | 0.0651 µM [rising, full curve, poor fit] |  |
| Cc1ccc(OCc2nnc(SCc3nc4ccccc4[nH]3)n2Cc2ccco2)cc1 | -9.31% | 1.64 µM [rising, partial curve] | 0.92 µM [rising, partial curve] |
| COc1ccc(CNC(=O)CN(C(=O)c2csnn2)c2cccc(C(C)=O)c2)cc1 | 12.9% | 0.461 µM [falling, full curve] |  |
| O=C(CN1CCN(Cc2ccccc2Cl)C1=O)NC1CCCCCCC1 | -23.6% |  |  |
| Cc1nn(-c2ccccc2)c(C)c1/C=N/N1CCN(c2ccccc2)CC1 | 83.1% | 6.51 µM [rising, single point] | 7.31 µM [rising, partial curve] |
| CC(=O)Nc1ccc(NC(=O)CSC2=NCCS2)cc1 | -4.79% |  | 0.58 µM [rising, single point] |
| C=CCNC(=O)/C(C#N)=C/c1cc(Br)ccc1OC | 40.9% |  | 32.6 µM [rising, single point] |
| CCOc1ccc(S(=O)(=O)NCCOC)cc1C |  | 6.51 µM [rising, single point] |  |
| Cn1ncc(Br)c1C(=O)NC1C2CC3CC(C2)CC1C3 (stereo unspecified) | 1.46% | 2.06 µM [rising, partial curve, poor fit] | 1.84 µM [rising, partial curve, poor fit] |
| Cc1ccc(C(=O)c2oc3ccc(Cl)cc3c2NC(=O)CN2CCN(C)CC2)cc1 | 25.6% | 0.58 µM [rising, single point] |  |
| CC(=O)Nc1ccc(S(=O)(=O)NC2C3(C)CCC(C3)C2(C)C)cc1 (stereo unspecified) | -19.3% |  |  |
| O=C(Nc1ccc(O)c(-c2nc3ccccc3s2)c1)c1cccs1 | -15.6% | 0.58 µM [rising, partial curve, poor fit] |  |
| CCCSc1nc(O)c(C(c2ccc(OC)c(O)c2)c2c(O)nc(SCCC)n(C)c2=O)c(=O)n1C | -26.8% | 32.6 µM [falling, single point] | 6.51 µM [rising, single point] |
| O=c1[nH]c(SCc2ccc(F)cc2Cl)nc2ccccc12 | 5.51% | 3.26 µM [falling, single point] |  |
| COc1ccc(NS(=O)(=O)c2cccc(C(=O)OCC(=O)N3CCN(c4ccc(OC)cc4)CC3)c2)cc1 | -43.1% | 16.4 µM [falling, single point] | 29.1 µM [falling, single point] |
| COc1ccc(C(N)=O)cc1NC(=O)c1cccc(F)c1 | 10.9% | 25.9 µM [rising, single point] |  |
| CSc1ccccc1C(=O)NCC(c1ccco1)N(C)C (stereo unspecified) | 28.2% |  |  |
| Cc1cc(C(=O)c2ccc(Cl)cc2)c(NC(=O)CCl)s1 | -11.3% | 18.4 µM [falling, partial curve] |  |
| CN(C)C1=NC[C@H](Cc2ccccc2)N1CCCC1CCCCC1 | -25.4% | 20.6 µM [falling, partial curve, poor fit] |  |

| SMILES | cell number change | AC50 [1] | AC50 [2] |
| --- | --- | --- | --- |
| CN(c1ccc(OCC(=O)OCC(=O)Nc2c(F)c(F)c(F)c(F)c2F)cc1)S(=O)(=O)c1ccc(F)cc1 | 1.08% | 0.731 µM [falling, full curve, poor fit] |  |
| COc1ccc2cc(C#N)c(N3CCN(Cc4nnnn4CCC(C)C)CC3)nc2c1 | 88.8% | 3.26 µM [rising, partial curve] | 2.91 µM [rising, full curve] |
| CCC(=O)N1CCc2cc(-c3csc(NC(=O)c4ccco4)n3)ccc21 | 15.4% | 5.8 µM [falling, full curve, poor fit] |  |
| Cc1ccc(-n2nc3c(=O)n(CC(=O)NCCc4ccccc4C)nc(C)c3c2C)cc1 | 7.31% | 0.231 µM [rising, full curve, poor fit] | 6.51 µM [rising, single point] |
| Cc1ccc2nc(SCC(=O)NCc3ccc(S(N)(=O)=O)cc3)[nH]c2c1 |  | 3.26 µM [falling, single point] |  |
| Cc1ccc(-c2nn(-c3ccccc3)cc2/C=C/C(=O)OCC(=O)NC2CC2)o1 | -44.7% |  | 16.4 µM [falling, partial curve, poor fit] |
| Oc1[nH]c2c(Cl)cc(Cl)cc2c1N=NC(=S)NCC1CCCO1 (stereo unspecified) | -46.9% | 18.4 µM [falling, single point] | 18.4 µM [falling, single point] |
| COc1cccc(CC(=O)OCC(=O)c2cc(OC)ccc2OC)c1 | 2.39% |  |  |
| Cc1cc(C)n(C(=O)c2sc3cc(F)ccc3c2Cl)n1 | -20.2% | 1.03 µM [rising, full curve] |  |
| Cc1ccc(CN2[C@@H](Cc3ccccc3)C(=O)CS2(=O)=O)cc1 | 17.6% | 0.0366 µM [rising, full curve] |  |
| O=C(N/N=C/c1cccnc1)c1cccc(S(=O)(=O)N2CCCC2)c1 | 32.9% | 23.1 µM [rising, partial curve, poor fit] |  |
| Cc1ccc(OCC(=O)O/N=C(\N)c2ccncc2)cc1C |  | 13 µM [rising, partial curve] |  |
| Cc1ccc(C)c(NC(=S)NC(NC(=O)Cc2cccc3ccccc23)C(Cl)(Cl)Cl)c1 (stereo unspecified) | -57.1% | 4.11 µM [falling, full curve] | 4.11 µM [falling, full curve] |
| COc1ccccc1C1CCN(c2ccc(CO)cc2[N+](=O)[O-])CC1 | -1.46% | 0.461 µM [falling, single point] | 0.58 µM [falling, single point] |
| CC1=C(C(=O)OCc2ccccc2)C(c2ccc([N+](=O)[O-])cc2)NC(=O)N1 (stereo unspecified) | -35.6% | 0.58 µM [falling, single point] | 32.6 µM [falling, single point] |
| O=C(NC1CCN(C(=S)Nc2ccccc2Cl)CC1)C1CCCCC1 | -6.41% | 29.1 µM [falling, single point] |  |
| Cc1nc2sc3c(c2c(=O)n1N)CCC3 | 35.2% |  | 13 µM [rising, partial curve, poor fit] |
| CCCCOC(=O)c1ccc(OC(=O)c2cccnc2)cc1 | -13.2% | 0.411 µM [falling, partial curve] |  |
| O=C(Cn1nc(-c2ccco2)ccc1=O)Nc1ccc(Br)cc1 | -13.7% | 2.59 µM [falling, partial curve, poor fit] |  |

Rewritten with each value named: part of the list above
Cc1ccc2nc(SCC(=O)NCc3ccc(S(N)(=O)=O)cc3)[nH]c2c1
  AC50 [1]: 3.26 µM [falling, single point]
Cc1cc(C)n(C(=O)c2sc3cc(F)ccc3c2Cl)n1
  cell number change: -20.2%; AC50 [1]: 1.03 µM [rising, full curve]
Cc1nc2sc3c(c2c(=O)n1N)CCC3
  cell number change: 35.2%; AC50 [2]: 13 µM [rising, partial curve, poor fit]
CCCCOC(=O)c1ccc(OC(=O)c2cccnc2)cc1
  cell number change: -13.2%; AC50 [1]: 0.411 µM [falling, partial curve]
